In PubChem BioAssay AID540276 (National Center for Advancing Translational Sciences (NCATS), 2011):
Out of some 300,000 compounds screened, about 5,400 (1.8%) were called active. The inconclusive results got no clear call from the source; some entries with a clear call stand among them for comparison. Calls follow the shape of the full dose curve; tested in HEK293 cells. Potencies of inconclusive entries are doubtful fits and often do not repeat.

Assay: qHTS for inhibitors of binding or entry into cells for Marburg Virus
Conditions: Marburg virus pseudotyped entry inhibition, cell reporter; series mostly up to 37.8 µM
Potency is read from the fitted curve at half-maximal effect.

Compound	Potency
O=C(CCN1C(=O)C2(OCCO2)c2ccccc21)c1ccccc1	inconclusive: 3.98 µM [activator, single point]
COc1ccc([N+](=O)[O-])cc1NC(=O)C(C)OC(=O)c1ccccc1C(=O)c1ccc(Cl)cc1 (configuration not stated)	inactive
CC(C)OC(=O)NC(c1ccccc1)C(Cl)(Cl)Cl (configuration not stated)	inconclusive: 0.0794 µM [inhibitor, full curve, poor fit]
COc1ccc([C@H]2C[C@H](O)[C@@H](n3cc(-c4ccc(F)cc4)nn3)CN2CC2CCCCC2)cc1	inconclusive: 0.0063 µM [inhibitor, full curve, poor fit]
CCOC(=O)CC(NC(=O)CCc1c(C)nc2cc(-c3ccccc3)nn2c1C)c1ccc(C)cc1 (configuration not stated)	inconclusive: 35.5 µM [inhibitor, single point]
COc1ccc(NC(=O)c2ccc(-c3nn(C)c(=O)c4ccccc34)cc2)cc1	inconclusive: 0.112 µM [activator, partial curve, poor fit]
COc1ccccc1-c1cc(C(=O)N/N=C/c2ccc(C)s2)c2ccccc2n1	active: 8.91 µM
Cc1cc(C)nc(SCc2cccc(C(=O)O)c2)n1	inactive
O=C(COC(=O)/C=C/c1cccc(Br)c1)NC1CCCC1	inactive
CC(C)NNC(=O)c1ccncc1	inconclusive: 9.2 µM [activator, partial curve, poor fit]
Cc1cc(Nc2ccccc2)n(-c2ccc(Br)cc2)n1	inconclusive: 12.6 µM [inhibitor, partial curve, poor fit]
CCOCCCNC(=O)Cn1nc(CC)n2c(cc3c(OC)cccc32)c1=O	inactive
COC(=O)c1ccc(NC(=O)CSc2nc3cc4ccccc4cc3[nH]2)cc1	inconclusive: 15.8 µM [activator, single point]
COc1cc(OC)c(NC(=O)C(C)n2nc(-c3ccc(C)cc3)c3c(c2=O)CCCC3)cc1Cl (configuration not stated)	inconclusive: 7.08 µM [inhibitor, partial curve, poor fit]
O=C(Nc1cc(F)ccc1F)c1cnn2c(C(F)F)cc(-c3ccccc3)nc12	inactive
O=C(Cc1c[nH]c2ccccc12)Nc1nnc(C2CC2)s1	inconclusive: 4.47 µM [inhibitor, full curve, poor fit]
O=[N+]([O-])c1ccc2nc(-c3cccnc3)[nH]c2c1	inactive
COc1cccc(NC(=O)CN2C(=O)CSc3ccc(S(=O)(=O)N4CCC(C)CC4)cc32)c1	inconclusive: 15.8 µM [inhibitor, single point]
S=C(Nc1cccc(Cl)c1)N(CCCN1CCCC1)Cc1cccn1Cc1ccc(Cl)cc1	inconclusive: 6.31 µM [inhibitor, full curve, poor fit]
Cc1ccc(C)c(NC(=O)Cn2c(=O)n(CC(=O)NCCc3ccccc3)c(=O)c3ccccc32)c1	inactive
CCOc1cccc(C(=O)NC2=NCCS2)c1	inconclusive: 1.12 µM [activator, partial curve, poor fit]
CCOc1ccc(NC(=O)CC(c2ccccc2)c2ccc(F)cc2)cc1 (configuration not stated)	inactive
Nc1cccc(C(=O)N/N=C/c2ccsc2)c1	inconclusive: 35.5 µM [activator, single point]

Ordered by SMILES length (smallest number first): 4 of the compounds above
Compound	Potency
CC(C)NNC(=O)c1ccncc1	inconclusive: 9.2 µM [activator, partial curve, poor fit]
CCOC(=O)CC(NC(=O)CCc1c(C)nc2cc(-c3ccccc3)nn2c1C)c1ccc(C)cc1 (configuration not stated)	inconclusive: 35.5 µM [inhibitor, single point]
COc1cc(OC)c(NC(=O)C(C)n2nc(-c3ccc(C)cc3)c3c(c2=O)CCCC3)cc1Cl (configuration not stated)	inconclusive: 7.08 µM [inhibitor, partial curve, poor fit]
COc1ccc([N+](=O)[O-])cc1NC(=O)C(C)OC(=O)c1ccccc1C(=O)c1ccc(Cl)cc1 (configuration not stated)	inactive

Continuation:

Compound	Potency
CCOc1ccc(S(=O)(=O)NC2CCCCCC2)cc1	inactive
c1ccn2cc(CSC3=NCCS3)nc2c1	inconclusive: 3.55 µM [activator, single point]
CCOC(=O)C1(c2ccccc2)CCN(CC(=O)Nc2cccc3ccccc23)CC1	inconclusive: 7.08 µM [inhibitor, partial curve, poor fit]
CCS(=O)(=O)c1ccc2c(c1)N(S(=O)(=O)c1ccc(Cl)cc1)CC(C(=O)O)O2 (configuration not stated)	inconclusive: 14.1 µM [activator, single point]
Cc1cc(N(CN2CCCC2=O)C(=O)c2ccc(OC(C)C)cc2)no1	inconclusive: 35.5 µM [activator, partial curve, poor fit]
CCCCCNCc1cccc(Br)c1	inconclusive: 1.3 µM [inhibitor, full curve]
O=C(NCCc1c[nH]c2ccccc12)c1cc(Cl)c2c(c1)OCO2	inconclusive: 2 µM [activator, full curve, poor fit]
Cc1cccc(CN2CCc3c([nH]c4ccccc34)C2C(C)(C)C)n1 (configuration not stated)	inconclusive: 12.6 µM [inhibitor, partial curve, poor fit]
CCc1ccc(C(CC(=O)O)N2Cc3ccccc3C2=O)cc1 (configuration not stated)	inconclusive: 0.708 µM [activator, single point]
O=C(CNC(=O)c1ccc(Br)o1)Nc1ccc(F)c(S(=O)(=O)N2CCOCC2)c1	inactive
CCn1c(=O)c(C(=O)NNC(=O)c2ccccc2)c(O)c2ccccc21	inconclusive: 5.62 µM [inhibitor, partial curve, poor fit]
CCCCCCC(=O)N/N=C/c1c(O)n(C2CC2)c(=S)[nH]c1=O	inconclusive: 1.26 µM [inhibitor, full curve, poor fit]
COc1ccc(Cn2c(SCc3ccc(C(=O)NCc4cccs4)cc3)nc3ccncc32)cc1	inconclusive: 35.5 µM [inhibitor, single point]
Cc1ccc(-c2[nH]ncc2C(=O)c2cccc(F)c2)c(O)c1	inactive
C#CCOCCOCCOCCNc1nc(N2CCN(C(=O)Cn3cc(CCCCN)nn3)CC2)nc(N2CCN(C(=O)[C@H](C)n3cc(CCCN=C(N)N)nn3)CC2)n1	inactive
CCn1c(=O)c(C(=O)NCCc2ccccc2)c(O)c2ccccc21	inactive
CCOc1ccc(Nc2oc(-c3ccc(COc4ccc(C)cc4)o3)nc2C#N)cc1	inactive
Cc1ccc2c(c1)CCCN2N=O	inconclusive: 1.26 µM [activator, single point]
Cc1cc(OCc2cc(C(=O)NCc3cc(C(C)C)no3)no2)cc(C)c1Cl	inconclusive: 1.26 µM [activator, single point]
COc1ccc(C2(c3ccc(OC)cc3)NC(=O)N(CC(=O)Nc3ccc(OC)c(OC)c3)C2=O)cc1	inconclusive: 35.5 µM [inhibitor, single point]
CC(C)CCNC(=O)CCCCn1c(=O)[nH]c2ccsc2c1=O	inactive
COc1cc(/C=N/NC(N)=S)ccc1OCc1ccc(C)cc1	inconclusive: 11.2 µM [inhibitor, partial curve, poor fit]
CC(C)c1ccc(C2C3=C(CC(C)(C)CC3=O)NC3=C2C(=O)c2ccccc23)cc1 (configuration not stated)	inconclusive: 29.1 µM [inhibitor, single point]

Compound	Potency
Cc1ccc(S(=O)(=O)N(CC(=O)NCCC2=CCCCC2)Cc2ccccc2F)cc1	inconclusive: 31.6 µM [inhibitor, single point]
CC(=O)c1cccc(NC(=O)Nc2cc3c(cc2N2CCCC2)n(C)c(=O)n3C)c1	inconclusive: 3.98 µM [inhibitor, single point]
CCc1ccc(C(=O)Nc2cccc(-c3nc4cc(C(C)C)ccc4o3)c2)cc1	inactive
Cc1ccc(S(=O)(=O)NCC(c2ccc3c(c2)OCO3)N2CCOCC2)cc1 (configuration not stated)	inactive
Cc1cc(C)c2c(n1)nn1c(N3CCN(Cc4ccccc4)CC3)cc(C)nc21	inconclusive: 0.13 µM [inhibitor, full curve, poor fit]
Cn1c(-c2cc(Br)ccc2O)n[nH]c1=S	inactive
Nc1ncnc2c1ncn2[C@@H]1O[C@H](CNS(=O)(=O)c2cc3ccccc3s2)[C@@H](O)[C@H]1O	inactive
COc1ccc(CNc2nc(-c3ccco3)nn2C(=O)c2ccccc2C)cc1	inconclusive: 3.55 µM [activator, single point]
Cc1ccc(N2C(=O)C3CCCN3C2=S)cc1C (configuration not stated)	inactive
COc1cccc(NC(=O)c2ccc3nsnc3c2)c1	inconclusive: 10 µM [inhibitor, partial curve]
CCOC(=O)c1[nH]c(C)c(C(=O)c2ccc(C)cc2)c1C	inconclusive: 1.46 µM [inhibitor, partial curve, poor fit]
Cc1ccccc1C(=O)N1N=C(c2ccc(NS(C)(=O)=O)cc2)CC1c1cccs1 (configuration not stated)	inconclusive: 35.5 µM [inhibitor, partial curve, poor fit]
COCCn1c(N)c(C(=O)NCC2CCCO2)c2nc3ccccc3nc21 (configuration not stated)	inconclusive: 14.1 µM [inhibitor, partial curve, poor fit]
CCOc1cc(CNCc2ccncc2)cc(Br)c1OCc1ccc(F)cc1	inconclusive: 29.1 µM [inhibitor, single point]
COc1cc(OC)c(C(=O)Oc2ccc3c(c2)OCO3)cc1OC	inactive
Cc1cccc(Nc2cc(C)nc3ccccc23)c1	inconclusive: 25.1 µM [inhibitor, single point]
C=CCN1C(=O)C(CC(=O)NCC)SC1=Nc1ccc(S(N)(=O)=O)cc1 (configuration not stated)	inconclusive: 32.6 µM [activator, partial curve, poor fit]
CCOC(=O)CSc1nc(C)cc(C)n1	inconclusive: 0.708 µM [activator, full curve, poor fit]
CCCCc1c(O)nc2sccn2c1=O	inconclusive: 31.6 µM [activator, single point]
C=CCc1ccc(OCCCN2CCCC(C)C2)c(OC)c1 (configuration not stated)	inconclusive: 7.3 µM [inhibitor, partial curve, poor fit]
O=C(NNc1ncnc2c1cnn2-c1ccccc1)c1ccco1	inconclusive: 1.41 µM [inhibitor, partial curve, poor fit]
